Consider 1 substance from PMC5243904.

Amino acid sequences for entries named in this document (tags omitted).
UniProt P11881: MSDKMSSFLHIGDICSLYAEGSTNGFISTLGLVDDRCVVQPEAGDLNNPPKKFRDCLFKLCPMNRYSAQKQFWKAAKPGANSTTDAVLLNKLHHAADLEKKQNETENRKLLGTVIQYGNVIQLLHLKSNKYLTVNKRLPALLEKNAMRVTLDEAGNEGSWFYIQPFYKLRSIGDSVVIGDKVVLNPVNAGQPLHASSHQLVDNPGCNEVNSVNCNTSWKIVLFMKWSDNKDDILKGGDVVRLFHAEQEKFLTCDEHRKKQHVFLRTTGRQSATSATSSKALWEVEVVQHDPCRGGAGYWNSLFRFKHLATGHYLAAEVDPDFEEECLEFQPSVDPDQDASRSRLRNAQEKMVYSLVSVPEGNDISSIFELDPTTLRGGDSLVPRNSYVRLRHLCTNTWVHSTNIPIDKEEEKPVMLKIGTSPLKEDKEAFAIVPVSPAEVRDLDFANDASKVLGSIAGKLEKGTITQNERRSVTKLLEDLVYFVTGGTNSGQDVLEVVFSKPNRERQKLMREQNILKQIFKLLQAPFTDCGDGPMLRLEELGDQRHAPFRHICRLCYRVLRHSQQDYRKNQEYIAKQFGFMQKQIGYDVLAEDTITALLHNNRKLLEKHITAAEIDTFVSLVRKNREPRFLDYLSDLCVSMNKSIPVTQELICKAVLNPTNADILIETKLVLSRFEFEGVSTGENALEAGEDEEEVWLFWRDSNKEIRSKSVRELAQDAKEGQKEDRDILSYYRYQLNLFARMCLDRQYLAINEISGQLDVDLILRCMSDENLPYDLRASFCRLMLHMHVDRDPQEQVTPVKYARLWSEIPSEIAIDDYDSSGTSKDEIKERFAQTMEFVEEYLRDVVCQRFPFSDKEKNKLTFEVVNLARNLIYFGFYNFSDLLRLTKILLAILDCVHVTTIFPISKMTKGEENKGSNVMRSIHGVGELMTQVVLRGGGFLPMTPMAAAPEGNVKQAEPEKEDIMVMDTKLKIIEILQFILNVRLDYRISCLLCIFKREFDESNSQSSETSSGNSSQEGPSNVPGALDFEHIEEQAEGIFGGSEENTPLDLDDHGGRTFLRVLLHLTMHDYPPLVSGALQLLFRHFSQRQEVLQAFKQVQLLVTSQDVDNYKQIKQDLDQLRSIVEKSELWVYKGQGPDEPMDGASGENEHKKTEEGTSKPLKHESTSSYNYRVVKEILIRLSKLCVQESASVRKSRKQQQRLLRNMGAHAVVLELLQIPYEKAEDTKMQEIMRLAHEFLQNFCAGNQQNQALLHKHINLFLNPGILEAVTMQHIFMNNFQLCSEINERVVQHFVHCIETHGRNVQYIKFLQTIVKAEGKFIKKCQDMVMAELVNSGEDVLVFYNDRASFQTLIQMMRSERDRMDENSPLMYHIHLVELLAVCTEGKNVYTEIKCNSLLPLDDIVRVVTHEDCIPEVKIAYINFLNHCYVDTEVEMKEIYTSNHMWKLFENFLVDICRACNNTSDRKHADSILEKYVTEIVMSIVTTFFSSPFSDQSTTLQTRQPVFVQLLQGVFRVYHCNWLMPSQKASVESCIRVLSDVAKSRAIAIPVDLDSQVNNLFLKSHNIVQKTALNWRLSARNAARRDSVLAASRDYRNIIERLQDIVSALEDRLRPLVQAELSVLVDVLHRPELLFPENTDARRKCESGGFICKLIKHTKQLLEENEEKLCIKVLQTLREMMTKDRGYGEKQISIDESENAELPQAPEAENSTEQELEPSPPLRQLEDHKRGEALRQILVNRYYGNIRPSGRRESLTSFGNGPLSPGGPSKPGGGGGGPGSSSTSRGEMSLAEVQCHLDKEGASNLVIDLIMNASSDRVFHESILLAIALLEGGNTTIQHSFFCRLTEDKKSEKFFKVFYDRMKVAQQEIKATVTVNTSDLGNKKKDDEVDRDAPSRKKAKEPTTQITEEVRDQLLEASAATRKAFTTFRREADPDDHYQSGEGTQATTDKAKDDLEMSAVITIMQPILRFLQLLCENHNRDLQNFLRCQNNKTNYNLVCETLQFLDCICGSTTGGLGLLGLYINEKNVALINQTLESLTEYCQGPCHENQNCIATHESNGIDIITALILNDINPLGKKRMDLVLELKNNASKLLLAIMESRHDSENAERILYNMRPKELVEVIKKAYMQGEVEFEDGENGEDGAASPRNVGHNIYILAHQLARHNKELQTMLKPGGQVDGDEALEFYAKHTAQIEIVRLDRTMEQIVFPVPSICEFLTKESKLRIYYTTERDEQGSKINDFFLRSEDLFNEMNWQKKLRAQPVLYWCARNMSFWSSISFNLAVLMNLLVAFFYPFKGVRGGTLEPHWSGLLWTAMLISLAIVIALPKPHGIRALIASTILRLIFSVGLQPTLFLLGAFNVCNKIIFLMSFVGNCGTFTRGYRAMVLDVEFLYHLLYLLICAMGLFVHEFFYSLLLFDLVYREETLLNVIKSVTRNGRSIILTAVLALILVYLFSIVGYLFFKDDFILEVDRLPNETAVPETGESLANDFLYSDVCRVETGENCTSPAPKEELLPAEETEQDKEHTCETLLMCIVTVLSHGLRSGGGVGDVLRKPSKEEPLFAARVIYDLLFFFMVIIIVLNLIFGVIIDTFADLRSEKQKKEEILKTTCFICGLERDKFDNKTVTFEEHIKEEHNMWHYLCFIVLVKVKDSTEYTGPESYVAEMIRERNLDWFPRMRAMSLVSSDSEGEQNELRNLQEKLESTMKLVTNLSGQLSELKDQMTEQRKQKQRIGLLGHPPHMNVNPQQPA

No constants are given. Whether binding was seen depends on the method and setting. In cells and extracts the contact can be indirect.

In this experiment the target is T1, wild-type ataxin-2 (ATXN2) (mouse (endogenous in mouse cerebellum)) (UniProt O70305).
T1 sequence: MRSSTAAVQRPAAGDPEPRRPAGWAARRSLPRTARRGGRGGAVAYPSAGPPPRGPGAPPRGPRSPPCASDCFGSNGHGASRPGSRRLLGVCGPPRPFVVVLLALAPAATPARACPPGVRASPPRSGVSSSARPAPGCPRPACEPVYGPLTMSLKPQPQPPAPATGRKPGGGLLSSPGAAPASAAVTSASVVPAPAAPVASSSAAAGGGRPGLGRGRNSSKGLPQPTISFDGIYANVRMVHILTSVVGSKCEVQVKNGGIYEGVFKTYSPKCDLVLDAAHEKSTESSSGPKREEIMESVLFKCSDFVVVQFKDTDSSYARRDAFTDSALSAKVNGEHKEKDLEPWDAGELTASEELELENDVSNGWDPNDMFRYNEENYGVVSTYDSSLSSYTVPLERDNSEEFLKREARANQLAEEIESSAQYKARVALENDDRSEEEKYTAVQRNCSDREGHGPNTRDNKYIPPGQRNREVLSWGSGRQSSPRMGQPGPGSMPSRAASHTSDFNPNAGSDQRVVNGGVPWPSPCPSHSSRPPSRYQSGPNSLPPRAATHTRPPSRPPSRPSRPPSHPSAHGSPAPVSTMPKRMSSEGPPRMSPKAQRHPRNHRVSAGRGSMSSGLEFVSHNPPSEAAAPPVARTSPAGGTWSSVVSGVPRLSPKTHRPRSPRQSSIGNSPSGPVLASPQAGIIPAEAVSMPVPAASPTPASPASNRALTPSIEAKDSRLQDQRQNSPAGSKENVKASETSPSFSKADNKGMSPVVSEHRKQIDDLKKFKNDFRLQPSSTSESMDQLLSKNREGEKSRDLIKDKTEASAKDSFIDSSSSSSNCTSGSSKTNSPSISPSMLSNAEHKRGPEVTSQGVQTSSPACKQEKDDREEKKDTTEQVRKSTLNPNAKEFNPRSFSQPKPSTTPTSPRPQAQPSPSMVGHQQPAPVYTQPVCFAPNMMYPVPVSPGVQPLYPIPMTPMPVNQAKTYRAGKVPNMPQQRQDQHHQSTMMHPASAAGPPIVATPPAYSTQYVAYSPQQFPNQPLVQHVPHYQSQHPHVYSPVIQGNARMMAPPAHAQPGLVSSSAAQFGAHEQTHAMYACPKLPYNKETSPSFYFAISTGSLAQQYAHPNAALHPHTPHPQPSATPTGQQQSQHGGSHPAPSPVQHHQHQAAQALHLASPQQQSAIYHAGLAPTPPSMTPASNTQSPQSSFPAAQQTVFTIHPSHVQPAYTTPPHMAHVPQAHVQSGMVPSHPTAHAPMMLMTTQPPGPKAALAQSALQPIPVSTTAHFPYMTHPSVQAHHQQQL
The experiment can be described thus: co-IP; endogenous proteins in mouse cerebellum extract (250 ug, NP40 buffer: 20 mM Tris-HCl pH 8.0, 137 mM NaCl, 1 % glycerol, 0.1 % Igepal CA-630, 2 mM EDTA); pulling with anti-ATXN2 or anti-ITPR1 on Protein A agarose beads, 4 °C overnight; controls beads only, unspecific IgG, Atxn2 KO tissue; immunoblots detecting ITPR1. Background: A western blot detects proteins with antibodies after separation by electrophoresis.

For “Inositol 1,4,5-triphosphate receptor 1 (ITPR1) (from UniProt P11881 1-2749)”, the binding entry is given as “no binding”.
